Results reported in paper PMC6073118.
These are yes or no findings as the source states them, for the method shown. Binding seen in cells or lysates may run through a third protein. A result given as binding can be weak or reduced; the word gives no strength.

Target: T1, Tic55 (A. thaliana (endogenous in isolated chloroplasts)) (UniProt Q9SK50)
T1 sequence: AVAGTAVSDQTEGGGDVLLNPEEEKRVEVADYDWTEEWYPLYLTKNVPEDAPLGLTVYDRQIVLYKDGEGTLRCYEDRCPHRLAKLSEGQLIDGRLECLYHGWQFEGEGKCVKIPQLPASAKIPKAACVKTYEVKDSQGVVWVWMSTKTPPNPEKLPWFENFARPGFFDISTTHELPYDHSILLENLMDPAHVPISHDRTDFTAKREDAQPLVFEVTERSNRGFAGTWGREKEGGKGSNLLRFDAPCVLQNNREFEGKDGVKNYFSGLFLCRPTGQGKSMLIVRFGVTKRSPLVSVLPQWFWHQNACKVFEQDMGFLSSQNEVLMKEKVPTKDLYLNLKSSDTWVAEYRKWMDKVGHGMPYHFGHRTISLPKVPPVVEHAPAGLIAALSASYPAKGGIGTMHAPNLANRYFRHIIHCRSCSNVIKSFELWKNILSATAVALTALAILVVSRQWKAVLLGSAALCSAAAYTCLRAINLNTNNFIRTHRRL
Experiment: co-IP; isolated chloroplasts of wild-type A. thaliana treated with 0.5 mM DSP (quenched with 50 mM glycine) and hypotonic buffer; membrane pellet solubilised in 25 mM HEPES-KOH pH 8.0, 50 mM KCl, 4% Tx-100, 20% glycerol; IP with anti-Tic55 antibody or preimmune serum and protein A, 4 °C; blots with anti-Tic110, anti-Hsp93, anti-Tic40

Hsp93
binding: binds
